Broadly, the Km is the concentration of substrate that gives half-maximal velocity. For orientation: Vmax means the top rate of the reaction or transport when substrate is in excess. One may read the kcat as the maximal rate divided by the concentration of active sites. In general, kcat/Km refers to the turnover number divided by the Michaelis constant.

Results on one protein are retold here after PMC7419483, “Phenolic metabolism in the hornwort Anthoceros agrestis: 4-coumarate CoA ligase and 4-hydroxybenzoate CoA ligase” (Plant Cell Reports, 2020).

Substrate in data set [1]: Nc1ncnc2c1ncn2[C@@H]1O[C@H](COP(=O)(O)OP(=O)(O)OP(=O)(O)O)[C@@H](O)[C@H]1O
The experiment in a line: purified protein. Conditions: pH 7.0 potassium phosphate, 40 °C, MgCl2, hydroxycinnamic acid co-substrate not stated.

Substrate in data set [2]: O=C(O)/C=C/c1ccc(O)c(O)c1
In words: purified protein. The note with it: pH 7.0 potassium phosphate, 40 °C, standard assay 2.5 mM ATP, 2.5 mM MgCl2, 500 µM CoA, no DTT.

B1: Aa4CL_2 (Anthoceros agrestis) (protein)
chain: MPAEMEAGEHIFRSNLPDIDIPFTLNLAHYSLQNAHQYGDKPCLIDGPTGKTYSYSEVEVVSRRVAAGLVALGVGKGEIVCLLLPNTCEFALIFLGVALRGAVVTTANPFYTAGELANQIKAAGAKIIVTQSAWAGKVAGLGAKVLTTDAPPEGCESAGLLLEADESKFTPVDVDPESVVCLPYSSGTTGLPKGVMLTHKSLISSVAQQVDGDCPHLHLTTDDVMLCLLPMFHIYSLNSVMLCGLRAGAALLIMQKFEIESLLRLVEKYKITVAPVVPPIVLAISKSPIVEKYDLSSITRVMSGAAPLGKELEDALRLKLPQATVGQGYGMTEAGPVLAMSLAFSKEPKQMKSGSVGMVMRNAELKVVDPESGVSLPVGEAGEICIRGPQIMKGYFNNPEATANTIDKHGWLHTGDIGVVDSDGEIFIVDRVKEIIKFKGFQVPPAELEALLLAHPDVSDAAVVPKKDEAAGEVPVAFVVRKEGSEVTEQALKEYVAKEVVFYKKIHHVQFIDVVPKSASGKILRKELRSRV
notes: N-terminal 6xHis tag (pRSET C) kept, E. coli SoluBL21, Ni-NTA purified
On to B1, for which, in the data set “purified protein [1]”, the Km is 151.1 ± 25.3 µM, the Vmax turned out to be 1.87 µmol/min/mg, the kcat was 1.9 s⁻¹ and the kcat/Km is 12700 M⁻¹ s⁻¹. Also, in “purified protein [2]”, the Km came to 20.5 ± 4.6 µM, the maximum rate (Vmax) is 1.94 µmol/min/mg, the kcat was 2 s⁻¹ and the kcat/Km was determined as 97400 M⁻¹ s⁻¹.
